{
  "source": "patent US20110270212A1",
  "about": "“PHARMACOKINETIC CONTROL FOR OPTIMIZED INTERFERON DELIVERY” (MEDTRONIC, INC., priority 2007, published 2011)",
  "origin": "cited, not measured here",
  "test_system": "chronic hepatitis C virus (HCV) genotype 1",
  "details": "lead-in patients with rapid virologic response (RVR)",
  "note": "Read-outs that look alike come from different tables or passages of the source. For at least one compound, name, drawing or mass did not settle the structure.",
  "data": [
    {"smiles": "CC(C)(C)NC(=O)N[C@H](C(=O)N1C[C@H]2[C@@H]([C@H]1C(=O)NC(CC1CCC1)C(=O)C(N)=O)C2(C)C)C(C)(C)C", "note": "(some centres unmarked) [Boceprevir]", "values": [
      {"measurement": "SVR (ITT)", "setting": "28-week regimen", "value": 82, "unit": "%"},
      {"measurement": "SVR (ITT)", "setting": "48 week regimen", "value": 92, "unit": "%"}
    ]}
  ]
}
